This is an account of results in PubChem BioAssay AID330 (DTP/NCI, 2004).

The assay relates to P388 leukemia ip, CD2F1 mice, survival T/C. The assay is described as follows: NCI In Vivo Anticancer Drug Screen. Data for tumor model P388 Leukemia (intraperitoneal) in CD2F1 (CDF1) mice. The note with it: T/C endpoint: median survival time, higher T/C = longer survival.
Where [1] appears, read: dose: 25.0 mg/kg/injection, schedule: Q01DX009 (ip), vehicle: saline with Tween-80.
The mark [2] stands for this setting: dose: 50.0 mg/kg/injection, schedule: Q01DX009 (ip), vehicle: saline with Tween-80.
[3] abbreviates: dose: 25.0 mg/kg/injection, schedule: Q01DX005 (ip), vehicle: Klucel (hydroxypropylcellulose) (HPC).
Setting [4] is: dose: 200.0 mg/kg/injection, schedule: Q01DX005 (ip), vehicle: Klucel (hydroxypropylcellulose) (HPC).
The mark [5] stands for this setting: dose: 100.0 mg/kg/injection, schedule: Q01DX009 (ip), vehicle: saline.
The mark [6] stands for this setting: dose: 200.0 mg/kg/injection, schedule: Q01DX009 (ip), vehicle: saline.
The mark [7] stands for this setting: dose: 400.0 mg/kg/injection, schedule: Q01DX009 (ip), vehicle: saline.

Each structure is given as a SMILES string. The list shows only some results of the screen, not a fair sample: it covers a few groups of compounds. Other doses and runs of a compound may be missing. T/C: endpoint of the treated group in % of that of the vehicle group. Some doses have a count of surviving animals in place of a T/C: the source holds a T/C of zero for them, seemingly a mark for toxic or unscored doses. Some doses without a T/C left all or most animals alive at the check, yet need not have been tolerated: survival well below the control is almost never listed, so the zero probably covers shortened survival too. Survivors were counted at the toxicity check, usually on the fifth day, unless a day is given; later deaths do not show. Schedules are NCI's codes, taken here to give the interval after Q, in days (D) or hours (H), and the number of doses after X. Some entries were tested several times; the values are given in rising order. For survival time, the PubChem record calls one and a half times the control and up active, and a quarter to a half above the control has no call in these data; cut-offs in other NCI protocols can differ. Counts like (3×) count equal records among those shown. Some T/C values are followed by the survivors on the day toxicity was checked, most often the fifth; where neither a count nor a note follows, no animal had died by that day. Some complexes appear as separate parts, the way the source draws them; their charges need not add up.

As for `CCN(CC)C(=O)Oc1ccc(/C=N/NC(N)=S)nc1`, the T/C is 108 % of control [5 of 6 alive] under setting [1]; 109 and 111 % of control under setting [2]; 117 and 130 % of control (dose: 100.0 mg/kg/injection, schedule: Q01DX009 (ip), vehicle: saline with Tween-80). For the same molecule, the survivor count (dose: 200.0 mg/kg/injection, schedule: Q01DX009 (ip), vehicle: saline with Tween-80) was 1 of 6 and 3 of 6.
On to `COc1ccc(C2=CCN(c3ccc(C)cc3)P(=O)(Cl)O2)cc1` (stereo not drawn), for which the T/C is, setting by setting: (dose: 25.0 mg/kg/injection, schedule: Q01DX005 (ip), vehicle: Klucel (hydroxypropylcellulose) (HPC), evaluated on day 20) 115 % of control; (dose: 25.0 mg/kg/injection, schedule: Q01DX005 (ip), vehicle: Klucel (hydroxypropylcellulose) (HPC), evaluated on day 30) 105 % of control; (dose: 50.0 mg/kg/injection, schedule: Q01DX005 (ip), vehicle: Klucel (hydroxypropylcellulose) (HPC), evaluated on day 20) 110 % of control; (dose: 50.0 mg/kg/injection, schedule: Q01DX005 (ip), vehicle: Klucel (hydroxypropylcellulose) (HPC), evaluated on day 30) 108 % of control (2×); (dose: 100.0 mg/kg/injection, schedule: Q01DX005 (ip), vehicle: Klucel (hydroxypropylcellulose) (HPC), evaluated on day 20) 111 % of control; (dose: 100.0 mg/kg/injection, schedule: Q01DX005 (ip), vehicle: Klucel (hydroxypropylcellulose) (HPC), evaluated on day 30) 107 and 117 % of control. Moreover, the T/C is, setting by setting: (dose: 200.0 mg/kg/injection, schedule: Q01DX005 (ip), vehicle: Klucel (hydroxypropylcellulose) (HPC), evaluated on day 20) 112 % of control [5 of 6 alive]; (dose: 200.0 mg/kg/injection, schedule: Q01DX005 (ip), vehicle: Klucel (hydroxypropylcellulose) (HPC), evaluated on day 30) 115 and 127 % of control.
As to `Cc1ccc2cc(N(CCCl)CCCl)ccc2c1`, the survivor count reads like this: (dose: 50.0 mg/kg/injection, schedule: Q01DX009 (ip), vehicle: Klucel (hydroxypropylcellulose) (HPC)) 6 of 6; (dose: 100.0 mg/kg/injection, schedule: Q01DX009 (ip), vehicle: Klucel (hydroxypropylcellulose) (HPC)) 6 of 6; (dose: 200.0 mg/kg/injection, schedule: Q01DX009 (ip), vehicle: Klucel (hydroxypropylcellulose) (HPC)) 6 of 6.
`COc1ccc(C2=CCN(c3ccccc3)P(=O)(Cl)O2)cc1` (stereo not drawn): the T/C by setting is: under setting [3], 98 % of control; (dose: 50.0 mg/kg/injection, schedule: Q01DX005 (ip), vehicle: Klucel (hydroxypropylcellulose) (HPC)) 100 and 107 % of control; (dose: 100.0 mg/kg/injection, schedule: Q01DX005 (ip), vehicle: Klucel (hydroxypropylcellulose) (HPC)) 102 and 117 % of control; under setting [4], 121 % of control. For the same molecule, the survivor count under setting [4] was 4 of 5.
For the molecule `CN([PH+](F)F)[PH+](F)F.CN([PH+](F)F)[PH+](F)F.CN([PH+](F)F)[PH+](F)F.[W]`, the T/C is, setting by setting: (dose: 12.5 mg/kg/injection, schedule: Q01DX001 (ip), vehicle: Klucel (hydroxypropylcellulose) (HPC)) 106 % of control; (dose: 25.0 mg/kg/injection, schedule: Q01DX001 (ip), vehicle: Klucel (hydroxypropylcellulose) (HPC)) 103 % of control; (dose: 50.0 mg/kg/injection, schedule: Q01DX001 (ip), vehicle: Klucel (hydroxypropylcellulose) (HPC)) 110 % of control; (dose: 100.0 mg/kg/injection, schedule: Q01DX001 (ip), vehicle: Klucel (hydroxypropylcellulose) (HPC)) 114 % of control; (dose: 200.0 mg/kg/injection, schedule: Q01DX001 (ip), vehicle: Klucel (hydroxypropylcellulose) (HPC)) 99 % of control; (dose: 400.0 mg/kg/injection, schedule: Q01DX001 (ip), vehicle: Klucel (hydroxypropylcellulose) (HPC)) 100 % of control.
`Cn1c(=O)ccc2ccc(N(CCO)CCCl)nc21`: the T/C is, setting by setting: (dose: 6.25 mg/kg/injection, schedule: Q01DX005 (ip), vehicle: Klucel (hydroxypropylcellulose) (HPC)) 101 % of control; (dose: 12.5 mg/kg/injection, schedule: Q01DX005 (ip), vehicle: Klucel (hydroxypropylcellulose) (HPC)) 103 % of control [5 of 6 alive]; under setting [3], 97 % of control; (dose: 50.0 mg/kg/injection, schedule: Q04DX003 (ip), vehicle: Klucel (hydroxypropylcellulose) (HPC)) 94 % of control. The survivor count (dose: 100.0 mg/kg/injection, schedule: Q04DX003 (ip), vehicle: Klucel (hydroxypropylcellulose) (HPC)) is reported as 2 of 6 and the survivor count (dose: 200.0 mg/kg/injection, schedule: Q04DX003 (ip), vehicle: Klucel (hydroxypropylcellulose) (HPC)) is recorded as 0 of 6.
Turning to `CC1(C)C2CCC(C2)C1(Cl)CSC(=O)SC(Cl)C(Cl)Cl` (stereo not drawn), the T/C (dose: 50.0 mg/kg/injection, schedule: Q01DX009 (ip), vehicle: saline) is 92 % of control; the T/C under setting [5] is 100 % of control; the T/C under setting [6] is 99 % of control.
Regarding `ClP1Nc2cncnc2N1` (stereo not drawn), the T/C (dose: 60.0 mg/kg/injection, schedule: Q01DX005 (ip), vehicle: suspension in saline) is 103 % of control; the T/C (dose: 120.0 mg/kg/injection, schedule: Q01DX005 (ip), vehicle: suspension in saline) is 104 % of control; the T/C (dose: 240.0 mg/kg/injection, schedule: Q01DX005 (ip), vehicle: suspension in saline) is 104 % of control.
Consider `O=P1(Nc2ncccn2)OC(CCl)=NC1c1ccc(C2N=C(CCl)OP2(=O)Nc2ncccn2)cc1` (stereo not drawn), for which the T/C (dose: 60.0 mg/kg/injection, schedule: Q01DX005 (ip), vehicle: saline with Tween-80) was 104 % of control; the T/C (dose: 120.0 mg/kg/injection, schedule: Q01DX005 (ip), vehicle: saline with Tween-80) is 92 % of control; the T/C (dose: 240.0 mg/kg/injection, schedule: Q01DX005 (ip), vehicle: saline with Tween-80) is 92 % of control.
On to `O=[N+]([O-])N1CN([N+](=O)[O-])CN([N+](=O)[O-])C1`, for which the survivor count is listed as 0 of 6 under setting [5], 0 of 6 under setting [6] and 0 of 6 under setting [7].
On to `O=C(CCC([N+](=O)[O-])([N+](=O)[O-])[N+](=O)[O-])c1ccccc1`, for which the T/C runs as follows: under setting [5], 111 % of control; under setting [6], 101 % of control [5 of 6 alive]; under setting [7], 111 % of control [5 of 6 alive].
Turning to `CN(C)C(=S)SCc1c([N+](=O)[O-])cc([N+](=O)[O-])cc1[N+](=O)[O-]`, the T/C runs as follows: (dose: 100.0 mg/kg/injection, schedule: Q04DX003 (ip), vehicle: saline) 100 % of control; (dose: 200.0 mg/kg/injection, schedule: Q04DX003 (ip), vehicle: saline) 102 % of control; (dose: 400.0 mg/kg/injection, schedule: Q04DX003 (ip), vehicle: saline) 100 % of control.
Regarding `CCOC(=O)COc1cccc(N(CCCl)CCCl)c1`, the T/C is 100 % of control (dose: 12.5 mg/kg/injection, schedule: Q04DX003 (ip), vehicle: saline with Tween-80); 144 % of control (dose: 22.0 mg/kg/injection, schedule: Q01DX009 (ip), vehicle: other); 100 % of control (dose: 25.0 mg/kg/injection, schedule: Q04DX003 (ip), vehicle: saline with Tween-80); 161 % of control (dose: 33.0 mg/kg/injection, schedule: Q01DX009 (ip), vehicle: other); 161 % of control (dose: 50.0 mg/kg/injection, schedule: Q01DX009 (ip), vehicle: other); 113 % of control (dose: 50.0 mg/kg/injection, schedule: Q04DX003 (ip), vehicle: saline with Tween-80). The T/C is 109 % of control (dose: 66.0 mg/kg/injection, schedule: Q04DX003 (ip), vehicle: saline with Tween-80); 177 % of control (dose: 75.0 mg/kg/injection, schedule: Q01DX009 (ip), vehicle: other); 136 % of control (dose: 100.0 mg/kg/injection, schedule: Q04DX003 (ip), vehicle: saline with Tween-80); 150 % of control [5 of 6 alive] (dose: 150.0 mg/kg/injection, schedule: Q04DX003 (ip), vehicle: saline with Tween-80).
For `COc1ccc2c(c1)C1(C)CCC(O2)C12CO2` (stereo not drawn), the T/C runs as follows: (dose: 12.5 mg/kg/injection, schedule: Q01DX009 (ip), vehicle: saline with Tween-80) 93 and 111 % of control; under setting [1], 117 % of control; under setting [2], 100 % of control.
